# The whole screen tested about 300,000 compounds, of which about 5,400 (1.8%) were called active. This list was built around the results that the source calls inconclusive (neither active nor inactive); the mix of calls is not that of the screen. The call rests on the fitted dose curve; tested in HEK293 cells. Where the call is inconclusive, the potency comes from a doubtful curve fit.
# Assay: qHTS for inhibitors of binding or entry into cells for Marburg Virus
# Details: Marburg virus pseudotyped entry inhibition, cell reporter; series mostly up to 37.8 µM
# Potency means the concentration at half of the fitted maximal effect.
row,SMILES,Potency
1,O=C(c1cc2c(F)cccc2s1)N1CCCC1,"inconclusive: 35.5 µM [activator, single point]"
2,CCc1nc2c(cnn2-c2ccc(Cl)cc2)c(=O)n1-c1ccc2c(c1)OCCO2,inactive
3,O=C(C1=NN(c2ccccc2)C2C(=O)N(c3ccccc3)C(=O)C12)c1ccccc1 (configuration not stated),"inconclusive: 2 µM [activator, single point]"
4,COc1ccccc1/C=C/C(=O)NNC(=O)c1cc(C)oc1C,"inconclusive: 0.447 µM [activator, single point]"
5,CCOc1ccc2nc3c(cc2c1)CN(CCOC)C(=NC)S3,inactive
6,CN(C)CCn1c(=S)[nH]c2ccccc2c1=O,"inconclusive: 15.8 µM [inhibitor, single point]"
7,CCN(CC)CCCN(C(=O)c1ccc(F)cc1)c1nc(-c2ccc(OC)cc2)cs1,"inconclusive: 7.08 µM [inhibitor, full curve, poor fit]"
8,CCCC(=O)Nc1nnc(C2CCCO2)s1 (configuration not stated),"inconclusive: 35.5 µM [activator, single point]"
9,Cc1ccccc1Nc1nc(N)nc(COC(=O)c2cccc(S(=O)(=O)N(C)c3ccccc3)c2)n1,"inconclusive: 9.2 µM [inhibitor, single point]"
10,N=c1n(CCN2CCOCC2)c2ccccc2n1Cc1ccccc1Br,"inconclusive: 18.3 µM [inhibitor, partial curve, poor fit]"
11,COc1ccc(OCc2cc(-c3ccc(Cl)cc3)no2)cc1,inactive
12,Cc1ccc(N2CCN(C(=O)c3cn(C)c4ccc(S(=O)(=O)N5CCC(C)CC5)cc4c3=O)CC2C)cc1 (configuration not stated),inactive
13,NC(=O)c1ccc(NC(=O)COC(=O)C2CC3C=CC2C3)cc1 (configuration not stated),"inconclusive: 0.501 µM [inhibitor, single point]"
14,CC(C)C1CC(CCNCc2ccc3c(c2)OCO3)(c2ccccc2)CCO1 (configuration not stated),active: 10 µM
15,COc1cc(N=c2ssnc2Cl)c(OC)cc1Cl,active: 16.4 µM
16,O=C(CCC(=O)Nc1cccc(C(F)(F)F)c1)NCC1CCCO1 (configuration not stated),"inconclusive: 0.355 µM [inhibitor, full curve, poor fit]"
17,CN(C)S(=O)(=O)c1cccc(C(=O)Nc2ccccc2[N+](=O)[O-])c1,"inconclusive: 0.891 µM [activator, partial curve, poor fit]"
18,COc1ccc(S(=O)(=O)Nc2ccccc2-c2nnn(CC(=O)Nc3ccccc3OC)n2)cc1,"inconclusive: 10 µM [inhibitor, single point]"
19,Cn1cc(Br)c(C(=O)NC2CCCCC2)n1,"inconclusive: 0.112 µM [activator, full curve, poor fit]"
20,COc1ccc(-n2nc(C(=O)NCC(=O)N3CCC(C)CC3)c3ccccc3c2=O)cc1,inactive
21,COc1ccc2c(=O)c3c(=O)n(-c4ccccc4)c(-c4ccc(C)cc4)nc3oc2c1,inactive
22,Nc1nnc(SCCCC(=O)c2ccc(F)cc2)s1,inactive
23,O=c1oc2ccc(Cl)cc2cc1-c1ccccc1,inactive
24,CCOc1cc2c3c(c1)C(C)CC(C)(C)N3C(=O)C2=O (configuration not stated),"inconclusive: 23.1 µM [inhibitor, single point]"

# Structural class, the entries above with two or more sulfur atoms
row,SMILES,Potency
15,COc1cc(N=c2ssnc2Cl)c(OC)cc1Cl,active: 16.4 µM
22,Nc1nnc(SCCCC(=O)c2ccc(F)cc2)s1,inactive

# Later entries

row,SMILES,Potency
1,CSCc1cc(N2CCOCC2)nc(-c2ccccc2)n1,"inconclusive: 8.91 µM [inhibitor, partial curve, poor fit]"
2,COC(=O)C(NNc1ccccc1C)(NC(=O)c1ccc(F)cc1)C(F)(F)F (configuration not stated),"inconclusive: 25.9 µM [inhibitor, single point]"
3,CCC(=N[C@H](CC)CO)C1=C(O)CC(C)(C)CC1=O,inactive
4,COc1ccc(CCNc2cc(C)[nH]c(=O)c2)cc1OC,inactive
5,CCOc1cc(C#N)c(NC(=O)c2ccc(OC)c(S(=O)(=O)N3CCCCC3)c2)cc1OCC,inactive
6,O=C1c2cccc3cccc(c23)C(=O)N1CC1CCCO1 (configuration not stated),inactive
7,COc1ccc(NC(=O)Cn2c(=O)n(Cc3ccco3)c(=O)c3sc4ccccc4c32)cc1OC,inactive
8,CS(=O)(=O)c1ccc(SCC(=O)NC2CCS(=O)(=O)C2)c([N+](=O)[O-])c1 (configuration not stated),"inconclusive: 2.24 µM [activator, partial curve, poor fit]"
9,O=C(Nn1cnnc1)c1ccccc1Cl,inactive
10,O=C(Cn1c(=O)n(Cc2ccco2)c(=O)c2ccccc21)Nc1cccc(F)c1,inactive
11,CN(Cc1ccccc1)CC1CCCN(CCc2ccccc2F)C1 (configuration not stated),"inconclusive: 15.8 µM [inhibitor, partial curve, poor fit]"
12,NC(=O)CCS(=O)(=O)c1ccc(Cl)cc1,"inconclusive: 4.47 µM [activator, partial curve]"
13,Cc1cc(C)nc(SCc2n[nH]c(=S)n2C)n1,"inconclusive: 35.5 µM [inhibitor, single point]"
14,COC(=O)c1sc(NC(=S)NC(=O)c2cccc(C)c2)nc1C,inactive
15,COc1ccc(OC(=O)c2cc(-c3ccc4c(c3)OCCO4)on2)cc1,inactive
16,O=C1CCCC2=C1Sc1ccccc1N2,inactive
17,Cn1nnc2c[n+](CC(=O)c3ccc(Cl)cc3)cc(Br)c21,"inconclusive: 7.08 µM [inhibitor, partial curve, poor fit]"
18,CCN(CC)S(=O)(=O)c1cc(NC(=O)CNc2cccc(S(=O)(=O)N3CCCC3)c2)ccc1C,"inconclusive: 2.82 µM [inhibitor, partial curve, poor fit]"
19,Cc1nn(-c2ccccc2)c(-n2cccc2)c1C(=O)NCCCN1CCN(c2ccccc2F)CC1,"inconclusive: 0.562 µM [inhibitor, full curve, poor fit]"
20,CCOc1ccc(C(=O)NCC(=O)OCc2cc([N+](=O)[O-])cc3c2OCOC3)cc1OCC,inactive
21,Cc1nc2ccc(S(=O)(=O)NCC(=O)NCc3ccc(Cl)cc3)cc2s1,inactive
22,O=[N+]([O-])c1ccccc1OCCCOc1cccc2cccnc12,"inconclusive: 35.5 µM [inhibitor, single point]"
23,Cc1cccc2nc(-c3ccc(Cl)s3)c(Nc3ccc4c(c3)OCCO4)n12,"inconclusive: 3.98 µM [activator, full curve, poor fit]"
24,COc1ccccc1CCNC(=O)c1csc2c1CCCC2,"inconclusive: 20 µM [inhibitor, single point]"

# In the list so far, 3 have an aryl thioether with sulfur outside any ring.
row,SMILES,Potency
22,Nc1nnc(SCCCC(=O)c2ccc(F)cc2)s1,inactive
8,CS(=O)(=O)c1ccc(SCC(=O)NC2CCS(=O)(=O)C2)c([N+](=O)[O-])c1 (configuration not stated),"inconclusive: 2.24 µM [activator, partial curve, poor fit]"
13,Cc1cc(C)nc(SCc2n[nH]c(=S)n2C)n1,"inconclusive: 35.5 µM [inhibitor, single point]"

# Continuation:

row,SMILES,Potency
1,N#C/C(=C(/O)c1ccc(F)cc1)c1nc2ccccc2s1,"inconclusive: 35.5 µM [inhibitor, single point]"
2,CCOc1ccc(S(=O)(=O)N(CC)CC(=O)NC2CC2)cc1,"inconclusive: 35.5 µM [activator, single point]"
3,CCCCn1nc(NC(=O)CC(C)C)c2cc3cc(OC)ccc3nc21,inactive
4,CCOc1cc(/C=N/NC(=O)c2cc(-c3ccccc3)nc3ccccc23)ccc1O,"inconclusive: 12.6 µM [inhibitor, partial curve, poor fit]"
5,CNS(=O)(=O)c1cc(NC(=O)c2cnc(SC)n2-c2ccccc2)ccc1C,"inconclusive: 8.91 µM [inhibitor, partial curve, poor fit]"
6,Cc1nn(Cc2ccccc2Cl)c(C)c1C(=O)NCCN1C(=O)S/C(=C\c2ccccc2)C1=O,"inconclusive: 22.4 µM [inhibitor, single point]"
7,CCOC(=O)C1=C(C)Nc2sc(C(=O)c3ccc(F)cc3)c(N)c2C1c1ccc(C(=O)OC)cc1 (configuration not stated),"inconclusive: 2 µM [inhibitor, full curve]"
8,CC(=O)c1sc(NC(=O)CN2C(=O)C3CC=CCC3C2=O)nc1-c1ccccc1 (configuration not stated),"inconclusive: 3.55 µM [activator, partial curve, poor fit]"
9,Cc1ccc(S(=O)(=O)N(C)C)cc1NC(=O)/C=C/c1cccs1,"inconclusive: 5.62 µM [inhibitor, single point]"
10,Cn1c(N)c(C(=O)COC(=O)C2(c3ccc(Cl)cc3)CCCC2)c(=O)n(C)c1=O,"inconclusive: 39.8 µM [inhibitor, partial curve, poor fit]"
11,O=C(O)/C=C/C(=O)NNC(=O)c1ccccc1Br,inactive
12,Cc1occc1C(=O)NN=C1C2CC3CC(C2)CC1C3,"inconclusive: 25.9 µM [activator, single point]"
13,COc1ccc(C(=O)NCc2nnc(SCC(=O)Nc3nc4ccc(C)cc4s3)o2)cc1OC,"inconclusive: 0.141 µM [activator, full curve, poor fit]"
14,CCOc1ccc(CN(CCc2ccc3c(c2)OCO3)Cc2cc(OC)cc(OC)c2)cc1,inactive
15,O=C(N/N=C/c1ccco1)c1ccc(N2CCCC2=O)cc1,"inconclusive: 5.62 µM [activator, single point]"
16,Cc1cccc(C)c1NC(=O)CN(C)C(=O)c1ccc2nc[nH]c2c1,inactive
17,O=C(CN1CCC(C(=O)c2ccc(F)cc2)CC1)NCc1ccccc1F,"inconclusive: 11.2 µM [inhibitor, single point]"
18,CCC(C)NC(=O)Cn1c(=O)n(-c2cc(OC)cc(OC)c2)c(=O)c2ccccc21 (configuration not stated),inactive
19,CC1(C)CC(=O)C2=C(C1)c1c(ccc3ccccc13)NC2c1ccc(C(=O)O)cc1 (configuration not stated),inactive
20,Cc1ccc(CCC(=O)Nc2ccc([N+](=O)[O-])cc2)o1,inactive
21,O=C(N=c1nc2ccccn2s1)c1ccccc1,"inconclusive: 0.092 µM [activator, full curve, poor fit]"
22,O=S(=O)(c1ccccc1)N1CCN(c2cc(-c3ccccc3)nc3ncnn23)CC1,"inconclusive: 8.2 µM [inhibitor, partial curve, poor fit]"
23,Cc1ccc(C(=O)NNC(=O)CCCN2C(=O)/C(=C/c3ccccc3Cl)SC2=S)cc1,active: 11.2 µM
24,CCN1C(=O)c2ccc(C(=O)NCc3ccccc3)cc2C1=O,inactive
